From the supplement of paper PMC10849652
This is one part of the list. Residues, ends and D or L forms follow the SMILES beside them. *: point of attachment. Cbz = O=C(OCc1ccccc1)*

By UniProt entry, the sequences of proteins in these tests, tags left out. Where a name states a change or a piece, a line headed by the entry shows the natural chain unless it says otherwise.
UniProt Q8NC42: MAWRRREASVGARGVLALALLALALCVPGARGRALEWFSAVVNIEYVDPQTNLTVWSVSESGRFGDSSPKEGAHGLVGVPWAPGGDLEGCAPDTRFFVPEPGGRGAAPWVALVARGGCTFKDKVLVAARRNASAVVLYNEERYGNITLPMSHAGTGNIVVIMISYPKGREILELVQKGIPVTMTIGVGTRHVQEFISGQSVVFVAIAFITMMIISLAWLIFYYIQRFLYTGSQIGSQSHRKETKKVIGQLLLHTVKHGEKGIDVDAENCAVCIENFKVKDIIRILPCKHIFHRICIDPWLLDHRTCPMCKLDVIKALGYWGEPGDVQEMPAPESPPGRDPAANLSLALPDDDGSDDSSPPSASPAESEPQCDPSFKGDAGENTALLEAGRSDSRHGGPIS
UniProt Q9P258, whole entry, looked up: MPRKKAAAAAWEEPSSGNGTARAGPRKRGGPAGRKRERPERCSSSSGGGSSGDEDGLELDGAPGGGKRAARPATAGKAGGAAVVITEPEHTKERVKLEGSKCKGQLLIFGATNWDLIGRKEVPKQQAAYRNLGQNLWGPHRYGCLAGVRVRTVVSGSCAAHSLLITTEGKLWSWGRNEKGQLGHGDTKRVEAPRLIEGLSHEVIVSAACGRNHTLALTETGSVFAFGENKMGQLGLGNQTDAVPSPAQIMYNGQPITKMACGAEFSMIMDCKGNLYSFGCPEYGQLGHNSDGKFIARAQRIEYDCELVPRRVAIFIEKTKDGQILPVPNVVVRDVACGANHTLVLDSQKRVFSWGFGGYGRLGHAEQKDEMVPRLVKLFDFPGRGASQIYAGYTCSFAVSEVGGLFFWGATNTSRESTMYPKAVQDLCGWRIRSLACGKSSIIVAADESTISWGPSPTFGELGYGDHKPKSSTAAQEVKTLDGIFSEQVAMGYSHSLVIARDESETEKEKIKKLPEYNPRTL
UniProt Q06330: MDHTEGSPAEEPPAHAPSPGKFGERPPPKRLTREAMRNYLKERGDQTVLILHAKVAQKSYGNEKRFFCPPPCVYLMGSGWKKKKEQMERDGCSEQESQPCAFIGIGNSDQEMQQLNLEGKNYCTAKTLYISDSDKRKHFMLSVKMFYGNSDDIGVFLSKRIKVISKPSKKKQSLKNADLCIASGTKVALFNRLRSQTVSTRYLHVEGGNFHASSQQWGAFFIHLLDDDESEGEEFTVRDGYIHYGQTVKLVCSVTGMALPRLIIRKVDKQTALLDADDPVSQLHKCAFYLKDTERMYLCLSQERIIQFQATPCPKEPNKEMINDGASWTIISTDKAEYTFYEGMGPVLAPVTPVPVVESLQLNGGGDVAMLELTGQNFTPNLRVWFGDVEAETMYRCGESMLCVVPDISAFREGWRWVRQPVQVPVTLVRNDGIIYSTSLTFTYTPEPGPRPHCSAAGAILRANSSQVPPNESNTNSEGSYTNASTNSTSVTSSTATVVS
UniProt P62877, whole entry, looked up: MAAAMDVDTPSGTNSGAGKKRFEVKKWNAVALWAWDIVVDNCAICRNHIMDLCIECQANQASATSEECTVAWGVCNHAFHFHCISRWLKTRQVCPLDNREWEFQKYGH
UniProt Q8IZV5: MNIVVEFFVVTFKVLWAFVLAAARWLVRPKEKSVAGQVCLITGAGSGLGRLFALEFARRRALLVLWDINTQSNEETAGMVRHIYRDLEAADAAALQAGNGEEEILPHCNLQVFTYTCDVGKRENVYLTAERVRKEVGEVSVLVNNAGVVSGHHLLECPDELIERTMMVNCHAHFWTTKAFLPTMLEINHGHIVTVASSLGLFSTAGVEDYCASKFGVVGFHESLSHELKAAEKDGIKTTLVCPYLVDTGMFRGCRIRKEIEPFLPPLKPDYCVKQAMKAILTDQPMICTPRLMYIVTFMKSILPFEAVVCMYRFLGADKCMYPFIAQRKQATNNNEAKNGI
UniProt Q9NTX7: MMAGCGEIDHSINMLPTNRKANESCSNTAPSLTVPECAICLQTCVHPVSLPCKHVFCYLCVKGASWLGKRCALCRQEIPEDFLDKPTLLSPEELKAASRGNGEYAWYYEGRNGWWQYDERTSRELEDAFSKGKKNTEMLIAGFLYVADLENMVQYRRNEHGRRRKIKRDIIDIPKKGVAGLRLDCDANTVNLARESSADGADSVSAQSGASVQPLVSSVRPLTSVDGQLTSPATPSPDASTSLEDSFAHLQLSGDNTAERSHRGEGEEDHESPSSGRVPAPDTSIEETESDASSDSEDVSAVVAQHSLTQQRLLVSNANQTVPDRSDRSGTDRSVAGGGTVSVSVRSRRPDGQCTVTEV
UniProt O75792: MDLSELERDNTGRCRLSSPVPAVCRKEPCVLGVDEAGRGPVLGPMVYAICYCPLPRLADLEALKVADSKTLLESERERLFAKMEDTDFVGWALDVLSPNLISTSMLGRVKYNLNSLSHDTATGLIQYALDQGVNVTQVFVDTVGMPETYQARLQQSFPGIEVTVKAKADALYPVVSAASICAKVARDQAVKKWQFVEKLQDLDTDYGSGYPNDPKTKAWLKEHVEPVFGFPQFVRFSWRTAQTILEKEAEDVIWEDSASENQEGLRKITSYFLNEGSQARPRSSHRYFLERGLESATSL
UniProt Q5RL73: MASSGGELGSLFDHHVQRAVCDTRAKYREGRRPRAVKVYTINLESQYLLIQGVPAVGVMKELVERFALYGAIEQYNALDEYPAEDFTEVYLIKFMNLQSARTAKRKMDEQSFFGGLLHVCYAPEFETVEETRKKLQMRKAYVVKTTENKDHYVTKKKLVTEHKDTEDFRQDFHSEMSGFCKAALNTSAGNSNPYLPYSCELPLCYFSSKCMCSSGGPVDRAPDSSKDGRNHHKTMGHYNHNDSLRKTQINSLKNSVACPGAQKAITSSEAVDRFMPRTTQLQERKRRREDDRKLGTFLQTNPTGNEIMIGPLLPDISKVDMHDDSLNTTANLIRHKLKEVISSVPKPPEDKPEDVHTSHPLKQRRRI

What was measured:
Assay in all cases: log2 fold change, soluble protein after heating vs DMSO (PISA); higher = thermal stabilisation; K562 cells, 10 uM, 30 min; active = over 0.2 and 3.5 SD of the protein, either way, in both replicates (recomputed)
IRAK-1-4 Inhibitor I = compound: C1COCCN1CCN2C3=CC=CC=C3N=C2NC(=O)C4=CC(=CC=C4)[N+](=O)[O-] [IRAK-1-4 Inhibitor I]
In short: (§1)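 K562 cells at 2×10^6 cells/mL were treated for 30 min with 10 μM compound, and aliquots were heated for 3 min over 48°C-58°C before pooling. Extraction used PBS with 0.5% NP-40 at 4°C, and soluble protein was the supernatant after 21,000xg for 90 min, measured by TMTpro 16plex LC-MS/MS with channel sums equalised. Thermal stability values, relative to control samples and from duplicates, are log2 fold changes.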

ibrutinib = compound: C=CC(=O)N1CCC[C@@H](n2nc(-c3ccc(Oc4ccccc4)cc3)c3c(N)ncnc32)C1 [ibrutinib]
In short: as §1

[1] = compound: CC(=O)c1cnc2ccc(-c3cc(Cl)c(O)c(Cl)c3)nc2c1N[C@H]1CC[C@H](CN(C)C)CC1
In short: as §1

ralimetinib = compound: CC(C)(C)Cn1c(N)nc2ccc(-c3[nH]c(C(C)(C)C)nc3-c3ccc(F)cc3)nc21 [ralimetinib]
In short: as §1

[2] = compound: CC(C)(O)CC(=O)NCCn1ccc2ncnc(Nc3ccc(Oc4cccc(C(F)(F)F)c4)c(Cl)c3)c21
In short: as §1

[3] = compound: CC(C)C1=C2N=C(C=C(N2N=C1)NCC3=CC=CC=C3)NCCCCCCN
In short: as §1

[4] = compound: CC(C)C[C@@H](C=O)NC(=O)[C@H](CC(C)C)NC(=O)[C@H](CC(C)C)NC(=O)OCc1ccccc1
In short: as §1

pinometostat = compound: CC(C)N(C[C@H]1O[C@@H](n2cnc3c(N)ncnc32)[C@H](O)[C@@H]1O)[C@H]1C[C@@H](CCc2nc3cc(C(C)(C)C)ccc3[nH]2)C1 [pinometostat]
In short: as §1

[5] = compound: CC1=C(C(CC(=O)N1)C2=CC=C(C=C2)C(F)(F)F)C(=O)NC3=C(C=C4C(=C3)C=NN4)F
In short: as §1

[6] = compound: CC1=C(C2=C(C=C1)C(=O)C3=CC=CC=C3N2CCCN)C
In short: as §1

[7] = compound: CC1=C(C=C(C=C1)NC(=O)C2=CC(=CC=C2)C(C)(C)C#N)NC3=CC4=C(C=C3)N=CN(C4=O)C
In short: as §1

[8] = compound: CC1=C(C=C(C=C1)NC(=O)C2=CC(=CC=C2)N(C)C)NC(=O)C3=CC=C(C=C3)O
In short: as §1

[9] = compound: CC1=CC=C(C=C1)SC2=C3C=C(SC3=CN=C2)C(=O)N
In short: as §1

[10] = compound: CC1=NC(=CC=C1)C2=C(N=C(N2)C(C)(C)C)C3=CC4=NC=CN=C4C=C3
In short: as §1

Nexturastat A = compound: CCCCN(Cc1ccc(C(=O)NO)cc1)C(=O)Nc1ccccc1 [Nexturastat A]
In short: as §1

vemurafenib = compound: CCCS(=O)(=O)Nc1ccc(F)c(C(=O)c2c[nH]c3ncc(-c4ccc(Cl)cc4)cc23)c1F [vemurafenib]
In short: as §1

[11] = compound: CCCS(=O)(=O)Nc1ccc(F)c(C(=O)c2c[nH]c3ncc(Cl)cc23)c1F
In short: as §1

[12] = compound: CCCc1cc(C)[nH]c(=O)c1CNC(=O)c1cc(-c2ccnc(N3CCN(C)CC3)c2)cc2c1cnn2C(C)C
In short: as §1

givinostat = compound: CCN(CC)Cc1ccc2cc(COC(=O)Nc3ccc(C(=O)NO)cc3)ccc2c1 [givinostat]
In short: as §1

barasertib = compound: CCN(CCCOc1ccc2c(Nc3cc(CC(=O)Nc4cccc(F)c4)[nH]n3)ncnc2c1)CCOP(=O)(O)O [barasertib]
In short: as §1

Measured: log2 fold change

RNF149 (UniProt Q8NC42)
inactive: IRAK-1-4 Inhibitor I -0.04 | ibrutinib 0.088 | [1] -0.012 | ralimetinib 0.041 | [2] -0.043 | [3] 0.063 | [4] 0.041 | pinometostat 0 | [5] -0.007 | [6] 0.028 | [7] 0.019 | [8] 0.027 | [9] 0.025 | [10] -0.051 | Nexturastat A 0.081 | vemurafenib -0.028 | [11] 0 | [12] -0.154 | givinostat 0.024 | barasertib -0.06

RCC2 (UniProt Q9P258)
inactive: IRAK-1-4 Inhibitor I 0.019 | ibrutinib -0.01 | [1] -0.038 | ralimetinib -0.023 | [2] -0.02 | [3] -0.044 | [4] -0.003 | pinometostat -0.028 | [5] -0.042 | [6] 0.141 | [7] 0.006 | [8] -0.002 | [9] 0.004 | [10] 0.051 | Nexturastat A -0.081 | vemurafenib 0.005 | [11] 0.038 | [12] -0.011 | givinostat -0.035 | barasertib 0.005

RBPJ (UniProt Q06330)
inactive: IRAK-1-4 Inhibitor I -0.012 | ibrutinib 0.001 | [1] 0.051 | ralimetinib -0.028 | [2] -0.011 | [3] 0.088 | [4] 0.05 | pinometostat -0.061 | [5] 0.008 | [6] -0.176 | [7] -0.05 | [8] 0.077 | [9] 0.002 | [10] 0.026 | Nexturastat A -0.025 | vemurafenib -0.043 | [11] 0 | [12] 0.049 | givinostat -0.024 | barasertib -0.024

RBX1 (UniProt P62877)
inactive: IRAK-1-4 Inhibitor I -0.048 | ibrutinib 0.023 | [1] -0.044 | ralimetinib -0.039 | [2] -0.07 | [3] 0.071 | [4] -0.076 | pinometostat 0.015 | [5] 0.022 | [6] 0.132 | [7] 0.06 | [8] -0.01 | [9] -0.047 | [10] 0.021 | Nexturastat A -0.041 | vemurafenib 0.002 | [11] -0.111 | [12] -0.072 | givinostat -0.152 | barasertib 0.001

RDH10 (UniProt Q8IZV5)
inactive: IRAK-1-4 Inhibitor I 0.076 | ibrutinib 0.159 | [1] -0.07 | ralimetinib 0.008 | [2] 0.075 | [3] 0.069 | [4] -0.043 | pinometostat -0.018 | [6] 0.007 | [7] 0.004 | [8] -0.034 | [9] 0.047 | [10] -0.055 | Nexturastat A -0.107 | vemurafenib -0.016 | [11] -0.058 | [12] -0.043 | givinostat -0.091 | barasertib 0.011

Reprinted at random: two records from the list, in no set order.
RNF149 (UniProt Q8NC42)
inactive: IRAK-1-4 Inhibitor I -0.04 | ibrutinib 0.088 | [1] -0.012 | ralimetinib 0.041 | [2] -0.043 | [3] 0.063 | [4] 0.041 | pinometostat 0 | [5] -0.007 | [6] 0.028 | [7] 0.019 | [8] 0.027 | [9] 0.025 | [10] -0.051 | Nexturastat A 0.081 | vemurafenib -0.028 | [11] 0 | [12] -0.154 | givinostat 0.024 | barasertib -0.06

RBX1 (UniProt P62877)
inactive: IRAK-1-4 Inhibitor I -0.048 | ibrutinib 0.023 | [1] -0.044 | ralimetinib -0.039 | [2] -0.07 | [3] 0.071 | [4] -0.076 | pinometostat 0.015 | [5] 0.022 | [6] 0.132 | [7] 0.06 | [8] -0.01 | [9] -0.047 | [10] 0.021 | Nexturastat A -0.041 | vemurafenib 0.002 | [11] -0.111 | [12] -0.072 | givinostat -0.152 | barasertib 0.001

(further entries)

RNF146 (UniProt Q9NTX7)
inactive: IRAK-1-4 Inhibitor I 0.087 | ibrutinib -0.012 | [1] 0.018 | ralimetinib -0.048 | [2] -0.18 | [3] -0.025 | [4] 0.031 | pinometostat 0.062 | [6] 0.004 | [7] -0.103 | [8] 0.001 | [9] 0.027 | [10] -0.083 | Nexturastat A -0.005 | vemurafenib -0.09 | [11] -0.063 | givinostat -0.012 | barasertib 0.001

RNASEH2A (UniProt O75792)
inactive: IRAK-1-4 Inhibitor I 0 | ibrutinib 0.008 | [1] -0.07 | ralimetinib -0.08 | [2] -0.029 | [3] -0.122 | [4] 0.074 | pinometostat -0.003 | [6] 0.042 | [7] -0.023 | [8] -0.018 | [9] 0.022 | [10] 0.046 | Nexturastat A 0.142 | vemurafenib -0.102 | [11] -0.024 | [12] -0.063 | givinostat 0.046 | barasertib 0.039

RBM48 isoform 2 (UniProt Q5RL73)
active: [7] -0.708
inactive: IRAK-1-4 Inhibitor I 0.15 | ibrutinib 0.051 | [1] -0.018 | ralimetinib 0.004 | [2] 0.004 | [3] 0.156 | [4] -0.301 | pinometostat 0.068 | [6] -0.151 | [8] -0.13 | [9] -0.009 | [10] -0.007 | Nexturastat A 0.04 | [11] -0.011 | givinostat -0.03 | barasertib -0.069
